Test results: PMC8888636
Results are given in words; binding and its absence hold for the method and conditions named. Binding seen in cells or lysates may run through a third protein. Some results given as binding are weak or reduced against the parent protein; the word gives no strength.

Sequences of proteins named here, by UniProt entry; tags and fusion partners are left off.
UniProt P09382: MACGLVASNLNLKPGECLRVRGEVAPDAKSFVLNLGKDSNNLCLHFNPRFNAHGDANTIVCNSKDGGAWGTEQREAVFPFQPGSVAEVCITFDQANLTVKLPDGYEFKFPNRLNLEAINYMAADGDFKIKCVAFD
UniProt Q9HCE7: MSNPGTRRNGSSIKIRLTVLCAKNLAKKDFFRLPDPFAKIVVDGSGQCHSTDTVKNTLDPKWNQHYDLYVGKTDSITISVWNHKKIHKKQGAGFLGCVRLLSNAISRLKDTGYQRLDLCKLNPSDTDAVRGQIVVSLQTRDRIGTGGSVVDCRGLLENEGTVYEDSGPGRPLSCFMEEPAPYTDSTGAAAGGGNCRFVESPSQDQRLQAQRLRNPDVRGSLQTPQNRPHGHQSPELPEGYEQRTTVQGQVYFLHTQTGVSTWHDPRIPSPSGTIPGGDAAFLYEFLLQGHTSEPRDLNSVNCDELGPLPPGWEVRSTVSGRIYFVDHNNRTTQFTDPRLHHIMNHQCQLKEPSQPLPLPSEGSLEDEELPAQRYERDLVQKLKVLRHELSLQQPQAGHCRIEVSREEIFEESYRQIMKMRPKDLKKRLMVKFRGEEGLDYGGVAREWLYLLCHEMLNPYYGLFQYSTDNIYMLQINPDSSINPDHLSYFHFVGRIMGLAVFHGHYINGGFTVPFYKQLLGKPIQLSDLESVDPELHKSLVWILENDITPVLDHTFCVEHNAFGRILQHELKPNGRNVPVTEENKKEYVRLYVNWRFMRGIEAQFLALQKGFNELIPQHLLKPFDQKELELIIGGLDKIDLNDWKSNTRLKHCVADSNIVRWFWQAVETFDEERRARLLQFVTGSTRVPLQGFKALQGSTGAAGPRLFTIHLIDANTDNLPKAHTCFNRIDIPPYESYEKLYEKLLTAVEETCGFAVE

Biological target: Galectin-1 (human (endogenous in ESCC cells)) (UniProt P09382)
Assay: co-IP; total proteins from ESCC cells (with or without ESCCAL-1 knockdown) incubated with primary antibody overnight at 4 °C, protein A/G magnetic beads, eluate analysed by western blot

Q: With “SMAD-specific E3 ubiquitin protein ligase 1 (from UniProt Q9HCE7 1-757) (enzyme)” as the substance, how does the binding read?
A: binds
